# Measured data: PubChem BioAssay AID493246 (Drosophila RNAi Screening Center, 2011)
# Aim: 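Identify essential fly genes by loss of cell viability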 (primary screen)
# Cell system: Drosophila Kc and S2R+ cells
# Reagent: long dsRNA against Drosophila genes
# Measurement: 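Cell number per well after knock-down, printed as raw plate values; calls were based on per-plate z-scores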
# Direction: Kc cell number and S2R+ cell number: higher = more cells remaining
# Active means: 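Counted as a hit if cell number falls by a z-score of at least 3 within its plate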
# In all, the deposit lists about 21,000 reagents; this is an unselected part of those with a known target gene and a result. In the full data, 429 (2%) were called active. 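Values are raw and not normalised between plates; calls rest on per-plate z-scores that were not deposited.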 A plus sign joins genes that one reagent is predicted to hit. No sequences are given here. Not given: the amount of reagent, the time to read-out.
The opening 2 entries, ahead of the listing:
predicted target,DRSC id,"Kc cell number, rep 1","Kc cell number, rep 2","S2R+ cell number, rep 1","S2R+ cell number, rep 2",Outcome
CG2217 + CG42740,DRSC14141,5.21e5,,7.81e5,,inactive
Obp56e (Odorant-binding protein 56e),DRSC07188,1.63e6,1.64e6,1.30e6,1.39e6,inactive

The listing, repeating the preview:
predicted target,DRSC id,"Kc cell number, rep 1","Kc cell number, rep 2","S2R+ cell number, rep 1","S2R+ cell number, rep 2",Outcome
CG2217 + CG42740,DRSC14141,5.21e5,,7.81e5,,inactive
Obp56e (Odorant-binding protein 56e),DRSC07188,1.63e6,1.64e6,1.30e6,1.39e6,inactive
Iris,DRSC00663,1.30e6,1.35e6,1.07e6,1.03e6,inactive
CG1354,DRSC17902,1.48e6,1.47e6,1.04e6,1.11e6,inactive
Klp59D (Kinesin-like protein at 59D),DRSC04118,1.66e6,1.68e6,1.38e6,1.48e6,inactive
Npc2f (Niemann-Pick type C-2f),DRSC15980,1.54e6,1.57e6,1.16e6,1.19e6,inactive
nullo,DRSC18807,1.60e6,1.65e6,1.12e6,1.25e6,inactive
CG31819,DRSC01532,1.53e6,1.61e6,1.04e6,1.26e6,inactive
Septin4 (Septin 4),DRSC20205,1.52e6,1.63e6,1.00e6,1.16e6,inactive
CG17029,DRSC10240,1.35e6,1.44e6,1.23e6,1.31e6,inactive
CG9095,DRSC20150,1.47e6,1.47e6,1.20e6,1.29e6,inactive
"ATPsynCF6 (ATP synthase, coupling factor 6)",DRSC14092,1.44e6,1.54e6,8.80e5,9.94e5,inactive
obe (obelus),DRSC15736,1.51e6,1.67e6,1.37e6,1.49e6,inactive
Ptp99A (Protein tyrosine phosphatase 99A),DRSC13933,1.44e6,1.59e6,1.04e6,1.21e6,inactive
Ptp99A (Protein tyrosine phosphatase 99A),DRSC13939,1.07e6,1.34e6,1.10e6,1.07e6,inactive
Ptp99A (Protein tyrosine phosphatase 99A),DRSC14319,1.44e6,1.46e6,9.74e5,1.12e6,inactive
Ptp99A (Protein tyrosine phosphatase 99A),DRSC14320,1.46e6,1.54e6,1.05e6,1.09e6,inactive
Ptp99A (Protein tyrosine phosphatase 99A),DRSC16803,1.53e6,1.53e6,1.02e6,1.10e6,inactive
AttB (Attacin-B),DRSC06734,1.53e6,1.51e6,1.15e6,1.32e6,inactive
Lim1 (LIM homeobox 1),DRSC17752,5.56e5,,8.47e5,,inactive
Lim1 (LIM homeobox 1),DRSC18677,1.43e6,1.63e6,1.06e6,1.23e6,inactive
Rab10,DRSC20572,1.49e6,1.58e6,9.46e5,1.10e6,inactive
lobo (lost boys),DRSC14662,1.69e6,1.61e6,9.80e5,1.14e6,inactive
lobo (lost boys),DRSC14663,1.61e6,1.53e6,1.06e6,1.12e6,inactive
